# According to PubChem BioAssay AID504834 (National Center for Advancing Translational Sciences (NCATS), 2011):
# In all, about 320,000 compounds went through this assay and about 22,000 (6.9%) were called active. Inconclusive results, whose numbers are uncertain, are shown with a selection of clear calls. Calls follow the shape of the dose curve; as a rule, active = well fitted inhibition curve with a large enough effect; inconclusive = small, poorly fitted or top-dose-only effect, or another doubt; inactive = no such curve, though single readings can be large or run the other way. Potencies of inconclusive entries are doubtful fits and often do not repeat.
# Assay: Primary qHTS for delayed death inhibitors of the malarial parasite plastid, 96 hour incubation
# Settings: P. falciparum luciferase reporter growth; series mostly up to 28.7 µM
# Summary of the method: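 Erythrocytes infected with luciferase-expressing P. falciparum were dispensed at 2% hematocrit and 0.05% parasitemia (final), then incubated with compounds 96 hours at 37 C in 5% CO2. Luminescence after detection reagent addition reported growth.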
# Potency is read from the fitted curve at half-maximal effect.
row,Structure (SMILES),Potency
1,O/N=C/c1cc(Br)ccc1OCc1cccc(F)c1,inactive
2,Cc1nc2c3ccccc3nc(NNC(=O)CCC(=O)NCCN3CCN(c4ccccc4)CC3)n2n1,"inconclusive: 10.4 µM [inhibitor, partial curve]"
3,COC(=O)Nc1sc2nc(C)cc(C)c2c1-n1cccc1,"inconclusive: 18.5 µM [inhibitor, single point]"
4,COC(=O)CSc1nnc2cc(C)c3ccccc3n12,inactive
5,O=C(Nc1ccc(F)cc1)c1ccccc1Oc1ccc(C(F)(F)F)cc1[N+](=O)[O-],inactive
6,COCn1c(-c2ccc(OC)c(OC)c2)nc2ccccc21,inactive
7,N#Cc1c(-c2ccccc2)cc(-c2ccc(O)cc2)nc1N,inactive
8,C#CCOCCOCCOCCNc1nc(N2CCN(C(=O)[C@H](Cc3ccc(O)cc3)n3cc([C@@H](N)C(C)CC)nn3)CC2)nc(N2CCN(C(=O)[C@H](Cc3cc4ccccc4[nH]3)n3cc([C@@H](N)C(C)CC)nn3)CC2)n1 (stereo not given in full),"inconclusive: 1.47 µM [inhibitor, single point]"
9,CS(=O)(=O)c1ccc2nc(NC(=O)c3ccccc3)sc2c1,inactive
10,O=C(NC1CSC/C1=N\O)c1ccccc1 (stereo not given),"inconclusive: 16.5 µM [inhibitor, single point]"
11,COCCNC(=O)NC(=O)COC(=O)c1cc([N+](=O)[O-])ccc1Sc1nc(C)cs1,inactive
12,Cc1ccc(CNC(=O)C(NS(=O)(=O)c2ccc3nc(C)sc3c2)C(C)C)cc1 (stereo not given),"inconclusive: 18.5 µM [inhibitor, single point]"
13,O=C(CNc1cccc([N+](=O)[O-])c1)N/N=C/c1ccc(F)cc1,inactive
14,Cc1nn(Cc2c(Cl)cccc2Cl)c(C)c1NC(=O)CCCn1nc([N+](=O)[O-])c(Cl)c1C,"inconclusive: 18.5 µM [inhibitor, single point]"
15,CCOc1ccc(NCc2nc3ccccc3n2CCOc2ccccc2)cc1,active: 6.57 µM
16,O=C(CNS(=O)(=O)c1ccc2ccccc2c1)OCc1nnc(-c2ccccc2)o1,inactive
17,O=C(Nc1ccccc1OC(=O)c1ccc(Cl)cc1)c1ccc(Cl)cc1,"inconclusive: 2.08 µM [inhibitor, partial curve, poor fit]"
18,CCOC(=O)C1(CCc2ccccc2)CCN(C(=O)c2cccc(C)n2)CC1,"inconclusive: 18.5 µM [inhibitor, single point]"
19,CCC(C)NC(=O)CN(c1ccc(OC)cc1)S(=O)(=O)c1ccc(NC(C)=O)cc1 (stereo not given),active: 6.57 µM
20,CCOc1cc(/C=N/Nc2cc(C)nc(-n3nc(C)cc3C)n2)ccc1O,active: 1.65 µM

# Shown as tab-separated lines: part of the list above
row	Structure (SMILES)	Potency
2	Cc1nc2c3ccccc3nc(NNC(=O)CCC(=O)NCCN3CCN(c4ccccc4)CC3)n2n1	inconclusive: 10.4 µM [inhibitor, partial curve]
3	COC(=O)Nc1sc2nc(C)cc(C)c2c1-n1cccc1	inconclusive: 18.5 µM [inhibitor, single point]
5	O=C(Nc1ccc(F)cc1)c1ccccc1Oc1ccc(C(F)(F)F)cc1[N+](=O)[O-]	inactive
17	O=C(Nc1ccccc1OC(=O)c1ccc(Cl)cc1)c1ccc(Cl)cc1	inconclusive: 2.08 µM [inhibitor, partial curve, poor fit]
19	CCC(C)NC(=O)CN(c1ccc(OC)cc1)S(=O)(=O)c1ccc(NC(C)=O)cc1 (stereo not given)	active: 6.57 µM
